Laboratory results: PubChem BioAssay AID720505 (Drosophila RNAi Screening Center, 2013)
The deposit covers about 20,000 reagents; this is a random part of those with a known target gene and a result. In the full data, about 2,100 (10%) are marked active. 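Raw plate signals without normalisation; calls rest on control-based scores that were not deposited; replicate 2 separates called from uncalled poorly.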 A plus sign joins genes that one reagent is predicted to hit. Reagent sequences are not shown. Not stated in the record: the amount of reagent, the time to read-out.

- Aim: 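Genes needed for store-operated calcium entry in fly cells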 (primary screen)
- Cell system: Drosophila S2R+ cells
- Reagent: long dsRNA against Drosophila genes
- Challenge: thapsigargin (2 µM) in calcium-free buffer to empty internal stores, then 2 mM calcium added back
- Detection: 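Stores emptied by 2 µM thapsigargin without calcium, then 2 mM calcium re-added; fluo-4 fluorescence followed by FLIPR in 384-well plates, per-well averaged endpoint, raw; two screen passes, some wells retested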
- Direction: calcium signal and retest calcium signal: higher = more calcium entry after store depletion
- Call rule: 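About 1500 genes called as lowering calcium entry, by varying amounts, judged against per-plate control wells with STIM1 as positive and Rho1 as negative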
- Meaning of the calls: active = called as lowering calcium entry; inactive = not called

no.	Target gene	amplicon	calcium signal, replicate 1	calcium signal, replicate 2	retest calcium signal, replicate 1	retest calcium signal, replicate 2	activity call
1	snu (GeneID 43391)	DRSC16589	110	190			inactive
2	CG7739 (GeneID 39684)	DRSC10910	74.6	105			inactive
3	Kdm5 (GeneID 33837)	DRSC03133	120	152			inactive
4	bma (GeneID 5740442)	DRSC09896	85.8	96.9			inactive
5	bma (GeneID 5740442)	DRSC10164	113	128			inactive
6	CG11655 (GeneID 32472)	DRSC19413	77.1	129			inactive
7	Or59a (GeneID 37711)	DRSC04631	108	153			inactive
8	CG43795 + SkpF	DRSC04120	81.5	120			inactive
9	CheA7a (GeneID 31672)	DRSC17965	63.9	247			active
10	CG7551 (GeneID 39280)	DRSC10876	92.9	89.7			inactive
11	ppk (GeneID 34843)	DRSC03595	93.5	107			inactive
12	ecd (GeneID 38291)	DRSC08574	86.5	94.5			inactive
13	CG41020 (retired record) (GeneID 5740564)	DRSC20866	104	12030			inactive
14	CG9686 (GeneID 31921)	DRSC18439	131	95.7			inactive
15	Sf3b6 (GeneID 38720)	DRSC09972	89.5	92.9			inactive
16	CG17490 (GeneID 3355125)	DRSC03794	155	7989			inactive
17	CG17490 (GeneID 3355125)	DRSC03797	66.2	126			inactive
18	CG12546 + CG14452	DRSC11709	78	113			inactive
19	ebd2 (GeneID 40363)	DRSC11682	102	169			inactive
20	CG16812 (GeneID 34722)	DRSC02519	128	91.5			inactive
21	CG32040 (GeneID 317835)	DRSC22459	109	156			inactive
22	Polr2A (GeneID 32100)	DRSC20280	77	35.2			active
23	CG3225 (GeneID 33680)	DRSC00578	70.6	145			inactive
24	CG1142 (GeneID 40894)	DRSC12531	106	185			inactive
25	MED6 (GeneID 44728)	DRSC16500	106	132			inactive
26	CG12814 (GeneID 41246)	DRSC14552	107	158			inactive
27	CG12814 (GeneID 41246)	DRSC14553	113	117			inactive
28	Acadvl (GeneID 37217)	DRSC07022	103	124			inactive
29	ovo (GeneID 31429)	DRSC18050	122	102			inactive
30	ovo (GeneID 31429)	DRSC18812	205	85.8			inactive
31	CG34417 (GeneID 31591)	DRSC18332	150	111			inactive
32	CG34417 (GeneID 31591)	DRSC18333	114	108			inactive
33	CG8229 (GeneID 35898)	DRSC07114	132	140			inactive
34	CG43428 (GeneID 12798467)	DRSC06205	106	191			inactive
35	Bap60 (GeneID 32268)	DRSC19337	163	154			inactive
36	mRpL11 (GeneID 41757)	DRSC15482	104	182			inactive
37	NP15.6 (GeneID 42282)	DRSC16756	89.8	115			active
38	CG7963 (GeneID 41001)	DRSC16355	133	151			inactive
39	CG11342 (GeneID 38538)	DRSC08175	54.4	95.5			inactive
40	CG32246 (GeneID 317936)	DRSC08115					active
41	CG42562 (GeneID 37008)	DRSC06453	140	104			inactive
42	CG15754 (GeneID 32307)	DRSC19719	108	81.9			inactive
43	CG18577 (GeneID 41337)	DRSC15352	58.2	110			active
44	epsilonCOP (GeneID 33908)	DRSC02003	121	230			inactive
45	CG15247 (GeneID 31919)	DRSC17976	140	126			inactive
46	CG42807 (GeneID 36511)	DRSC06966	128	201			inactive
47	asRNA:CR42743 + CG34162	DRSC01190	155	109			inactive
48	CG11790 (GeneID 42999)	DRSC14390	204	252			inactive
49	sau (GeneID 33402)	DRSC00694	64.3	145			active
50	COX7C (GeneID 50246)	DRSC06831	168	132	85.8	123	inactive
51	gogo (GeneID 40225)	DRSC10070	72.7	129			inactive
52	gogo (GeneID 40225)	DRSC10071	49.8	129			active
53	Noc2 (GeneID 35386)	DRSC03165	83.2	95.5			inactive
54	nuf (GeneID 39572)	DRSC11379	64.1	184			inactive
55	nuf (GeneID 39572)	DRSC22524	101	77.4			inactive
56	nuf (GeneID 39572)	DRSC23276	98.6	107			inactive
57	Snap25 (GeneID 3355084)	DRSC21228	221	83			inactive
58	Snap25 (GeneID 3355084)	DRSC21236	148	117			inactive
59	Srp14 (GeneID 42436)	DRSC15797	214	153			inactive
60	Brca2 (GeneID 37916)	DRSC04219	143	213			inactive
61	Brca2 (GeneID 37916)	DRSC04220	85.7	229			inactive
62	CG13676 (GeneID 38906)	DRSC10035	97.9	61.1			inactive
63	CG9577 (GeneID 33016)	DRSC20693	68.6	214	127	78.5	active
64	RpL37-1 (GeneID 32446)	DRSC20149	70.4	123	7608	205	active
65	RpL37-1 (GeneID 32446)	DRSC21646	66.3	124			inactive
66	EMC7 (GeneID 36767)	DRSC07162	114	130			inactive
67	Khc-73 (GeneID 36718)	DRSC07449	175	125			inactive
68	CG12290 (GeneID 43182)	DRSC14497	77.4	97.9			inactive
69	obst-E (GeneID 33806)	DRSC02128	120	252			inactive
70	Uck (GeneID 42894)	DRSC16028	178	138			inactive
71	mor (GeneID 41942)	DRSC15378	116	109			inactive
72	RNF220 (GeneID 42690)	DRSC15652	197	318			inactive
73	RpL34a (GeneID 43169)	DRSC15964	229	127			inactive
74	Gycbeta100B (GeneID 43682)	DRSC16691	106	93.4			inactive
75	Tap42 (GeneID 326166)	DRSC02967	111	188			inactive
76	Traf-like (GeneID 32611)	DRSC19894	129	137			inactive
77	CG5139 (GeneID 33309)	DRSC00681	181	88.5			inactive
78	CG43897 (GeneID 39153)	DRSC10173	90.8	93.3			inactive
79	CG43897 (GeneID 39153)	DRSC10965	71.9	81			inactive
80	CG43897 (GeneID 39153)	DRSC10967	89.6	113			inactive
81	CG43897 (GeneID 39153)	DRSC21583	120	166			inactive
82	CG12608 (GeneID 32463)	DRSC19472	119	95.7			inactive
83	CG31368 (GeneID 41437)	DRSC14949	170	79.5			inactive
84	CG31368 (GeneID 41437)	DRSC14951	86.9	163			inactive

Records above whose gene name starts with A or a:
Target gene	amplicon	calcium signal, replicate 1	calcium signal, replicate 2	retest calcium signal, replicate 1	retest calcium signal, replicate 2	activity call
Acadvl (GeneID 37217)	DRSC07022	103	124			inactive
asRNA:CR42743 + CG34162	DRSC01190	155	109			inactive
